Some results were stated once for a whole list of compounds, not compound by compound.
Test system: malignant CLL cells
Format: cell-based
Settings: CLL ex vivo samples, FIG. 6

SMILES: O=C(O)CCCc1ccc(N(CCCl)CCCl)cc1 [chlorambucil]
- % apoptosis of malignant cells: more than 75%
